We go through 2 molecules from publication PMC7055376, “Evidence for binary Smc complexes lacking kite subunits in archaea” (IUCrJ, 2020).

These are yes or no findings as the source states them, for the method shown. Tags and fused reporters may be left off the sequences shown.

Test [1] has as its target ToScpA(E69C)-GFP-(His)10 (Thermococcus onnurineus) (UniProt B6YWU6). The test is described as follows: cross-linking; BMOE (200 µM) cysteine cross-linking of co-purified ToSmcHd-CC80 and ToScpA(E69C)-GFP-(His)10 at 2 µM; 20 mM Tris-HCl pH 7.5, 100 mM NaCl, 10 min, 25°C; denaturing PAGE, GFP signal, Coomassie, bands confirmed by mass spectrometry; both purified.
Test [2] addresses T1, (His)10-MBP-tagged Thermococcus onnurineus ScpA (TON_1071) (Thermococcus onnurineus) (UniProt B6YWU6).
T1 sequence: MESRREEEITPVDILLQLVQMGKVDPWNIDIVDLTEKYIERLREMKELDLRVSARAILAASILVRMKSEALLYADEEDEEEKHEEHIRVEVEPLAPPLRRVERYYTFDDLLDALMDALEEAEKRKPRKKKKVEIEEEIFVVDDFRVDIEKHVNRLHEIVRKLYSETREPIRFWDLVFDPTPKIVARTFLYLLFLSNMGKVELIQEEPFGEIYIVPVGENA
In words: SEC; mixture of (His)10-MBP-tagged ScpA and ScpB homologue on Superdex 200 Increase 10/300 GL; 20 mM Tris-HCl pH 7.5, 100 mM NaCl, 1 mM DTT, 4°C; 10 µM each in 100 µl; both purified. A general note: SEC sorts molecules by how far they enter the pores of the column.

The target of test [3] is T1, (His)10-MBP-tagged Thermococcus onnurineus ScpA (TON_1071) (Thermococcus onnurineus). In words: pull-down; (His)10 pull-down on Ni-NTA resin; (His)10-MBP-tagged ScpA held, untagged putative ScpB, 1 µM each; 20 mM Tris-HCl pH 7.5, 100 mM NaCl, 25°C, 10 min; wash with 30 mM imidazole; denaturing PAGE; both purified.

B1: ToScpA(E69C)-GFP-(His)10 (protein, UniProt B6YWU6 1-220)
chain: MESRREEEITPVDILLQLVQMGKVDPWNIDIVDLTEKYIERLREMKELDLRVSARAILAASILVRMKSCALLYADEEDEEEKHEEHIRVEVEPLAPPLRRVERYYTFDDLLDALMDALEEAEKRKPRKKKKVEIEEEIFVVDDFRVDIEKHVNRLHEIVRKLYSETREPIRFWDLVFDPTPKIVARTFLYLLFLSNMGKVELIQEEPFGEIYIVPVGENA
As to B1, the binding entry in test [1] is recorded as “no binding”.

B2: TON_1955 (putative Thermococcus onnurineus ScpB), untagged (protein)
chain: MGLLEDKALVEAALFVSGRPLSIKELSRALGIRSLDYLEKLIELIAAEYAERKSAIEVVRVLGDKYVMQVKQEYSQRVVHLMPRPDLRTGELKTLALIAYLQPIEQSKLVKLRGSQAYEHIRKLLEMGLIYAEPYERTKLLGTTPKFAELYGFPENDPMMIKEAFKKVVHAEYSDLIAKLEGKEEKEEMPQESEE
For B2, the binding result in test [2] was “no binding (tested: 10 µM each)”; in test [3], “no binding (tested: 1 µM each)”.
